The test addresses T1, Full-length myotilin with N-terminal thioredoxin tag (Trx-MYOT) (human) (UniProt Q9UBF9).
T1 sequence: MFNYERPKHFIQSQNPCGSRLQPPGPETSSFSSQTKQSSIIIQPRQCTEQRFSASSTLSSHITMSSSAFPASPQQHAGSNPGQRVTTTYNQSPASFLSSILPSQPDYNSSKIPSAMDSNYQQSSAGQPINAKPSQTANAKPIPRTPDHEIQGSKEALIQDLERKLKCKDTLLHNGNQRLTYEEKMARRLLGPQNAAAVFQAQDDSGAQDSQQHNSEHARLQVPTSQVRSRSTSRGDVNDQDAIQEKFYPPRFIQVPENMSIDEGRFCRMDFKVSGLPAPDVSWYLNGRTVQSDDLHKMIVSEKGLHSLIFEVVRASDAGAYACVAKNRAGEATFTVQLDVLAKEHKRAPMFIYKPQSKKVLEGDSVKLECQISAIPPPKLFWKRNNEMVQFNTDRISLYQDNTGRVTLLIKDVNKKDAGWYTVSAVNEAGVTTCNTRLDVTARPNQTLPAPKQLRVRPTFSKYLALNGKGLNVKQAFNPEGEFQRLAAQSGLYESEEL
In words: pull-down; Trx-MYOT (5 μM) mixed with α-actinin-2 constructs (2.5 to 7.5 μM) in buffer P (20 mM Tris-HCl, 100 mM NaCl, 10 mM imidazole, 5% glycerol, pH 7.5), captured on Co2+-loaded Chelating Sepharose beads, room temperature; SDS-PAGE; both purified.

By UniProt entry, the sequences of proteins in these tests, tags left out. Where a name states a change or a piece, a line headed by the entry shows the natural chain unless it says otherwise.
UniProt P35609: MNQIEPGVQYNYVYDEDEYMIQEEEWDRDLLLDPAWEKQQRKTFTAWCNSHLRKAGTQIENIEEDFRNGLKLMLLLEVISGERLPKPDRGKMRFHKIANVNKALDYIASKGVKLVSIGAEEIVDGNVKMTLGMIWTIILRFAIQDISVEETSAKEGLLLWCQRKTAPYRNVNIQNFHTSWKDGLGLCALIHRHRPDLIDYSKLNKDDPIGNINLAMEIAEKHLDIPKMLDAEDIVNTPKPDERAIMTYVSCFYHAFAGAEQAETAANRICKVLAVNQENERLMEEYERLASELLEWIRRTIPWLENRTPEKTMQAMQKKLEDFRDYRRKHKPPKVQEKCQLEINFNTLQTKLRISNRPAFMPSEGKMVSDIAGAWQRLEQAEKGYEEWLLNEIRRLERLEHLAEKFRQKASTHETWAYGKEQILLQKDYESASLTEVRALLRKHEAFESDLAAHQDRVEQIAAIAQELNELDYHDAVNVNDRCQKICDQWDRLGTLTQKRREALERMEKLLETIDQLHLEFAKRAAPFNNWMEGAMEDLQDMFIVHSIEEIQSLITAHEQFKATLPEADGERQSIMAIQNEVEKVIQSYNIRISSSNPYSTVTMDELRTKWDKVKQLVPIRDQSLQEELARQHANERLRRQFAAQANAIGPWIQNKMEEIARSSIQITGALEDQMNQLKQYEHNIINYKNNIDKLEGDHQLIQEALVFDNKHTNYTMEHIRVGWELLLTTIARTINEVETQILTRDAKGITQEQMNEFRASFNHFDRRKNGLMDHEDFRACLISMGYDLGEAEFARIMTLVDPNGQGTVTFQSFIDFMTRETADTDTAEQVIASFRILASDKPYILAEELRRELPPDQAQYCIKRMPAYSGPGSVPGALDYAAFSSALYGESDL

No constants are given. Whether binding was seen depends on the method and setting. Binding calls can cover weak binding; strength is not graded here. Tags and fused reporters may be left off the sequences shown.

“Constitutively open mutant of α-actinin-2 (ACTN2-NEECK) (from UniProt P35609)”: the binding result was “binds”.

For the origin of these results see PMC8062120.
